Experimental findings from the supplement of paper PMC10849652 are described below.

Sequences of proteins named here, by UniProt entry; tags and fusion partners are left off. A change or cut given only in a name is not applied to a line headed by its entry.
UniProt Q99832: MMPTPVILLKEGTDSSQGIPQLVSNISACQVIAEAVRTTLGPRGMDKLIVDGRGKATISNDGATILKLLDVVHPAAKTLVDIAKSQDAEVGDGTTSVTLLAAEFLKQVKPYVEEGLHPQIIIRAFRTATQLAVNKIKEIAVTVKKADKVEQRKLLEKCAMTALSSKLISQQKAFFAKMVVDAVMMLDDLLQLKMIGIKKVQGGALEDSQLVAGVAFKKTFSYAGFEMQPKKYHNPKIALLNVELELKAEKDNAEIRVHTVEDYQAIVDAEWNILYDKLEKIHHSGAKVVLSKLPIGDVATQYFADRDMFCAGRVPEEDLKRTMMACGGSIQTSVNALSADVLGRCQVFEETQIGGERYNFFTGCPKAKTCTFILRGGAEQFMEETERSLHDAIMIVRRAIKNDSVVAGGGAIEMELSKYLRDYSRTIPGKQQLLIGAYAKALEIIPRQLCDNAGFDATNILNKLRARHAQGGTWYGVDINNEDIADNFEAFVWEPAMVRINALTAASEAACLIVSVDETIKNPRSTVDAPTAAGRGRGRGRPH
UniProt P78371: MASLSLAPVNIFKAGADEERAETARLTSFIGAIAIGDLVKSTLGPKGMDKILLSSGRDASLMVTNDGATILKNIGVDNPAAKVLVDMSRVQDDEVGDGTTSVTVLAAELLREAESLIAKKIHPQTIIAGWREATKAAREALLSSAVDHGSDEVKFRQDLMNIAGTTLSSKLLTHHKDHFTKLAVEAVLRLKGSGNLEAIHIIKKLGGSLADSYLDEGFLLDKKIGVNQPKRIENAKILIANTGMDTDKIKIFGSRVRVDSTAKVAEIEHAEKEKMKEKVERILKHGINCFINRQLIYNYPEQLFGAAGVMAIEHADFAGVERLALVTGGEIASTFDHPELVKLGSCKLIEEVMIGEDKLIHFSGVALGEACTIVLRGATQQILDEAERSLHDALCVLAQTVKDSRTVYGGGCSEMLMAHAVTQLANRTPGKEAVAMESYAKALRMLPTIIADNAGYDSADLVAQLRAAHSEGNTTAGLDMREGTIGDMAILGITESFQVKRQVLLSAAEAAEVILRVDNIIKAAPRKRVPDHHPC
UniProt P45973, whole entry, looked up: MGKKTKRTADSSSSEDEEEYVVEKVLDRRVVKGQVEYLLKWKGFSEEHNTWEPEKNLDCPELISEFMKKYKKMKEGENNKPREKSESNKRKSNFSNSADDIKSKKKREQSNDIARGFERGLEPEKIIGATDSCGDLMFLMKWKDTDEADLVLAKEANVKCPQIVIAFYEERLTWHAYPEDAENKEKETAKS
UniProt Q9BV29: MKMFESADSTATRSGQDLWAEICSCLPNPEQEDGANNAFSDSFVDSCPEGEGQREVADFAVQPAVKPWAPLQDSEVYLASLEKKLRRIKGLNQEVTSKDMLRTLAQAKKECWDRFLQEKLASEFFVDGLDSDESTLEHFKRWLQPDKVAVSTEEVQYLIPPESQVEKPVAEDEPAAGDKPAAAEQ
UniProt Q6NZI2: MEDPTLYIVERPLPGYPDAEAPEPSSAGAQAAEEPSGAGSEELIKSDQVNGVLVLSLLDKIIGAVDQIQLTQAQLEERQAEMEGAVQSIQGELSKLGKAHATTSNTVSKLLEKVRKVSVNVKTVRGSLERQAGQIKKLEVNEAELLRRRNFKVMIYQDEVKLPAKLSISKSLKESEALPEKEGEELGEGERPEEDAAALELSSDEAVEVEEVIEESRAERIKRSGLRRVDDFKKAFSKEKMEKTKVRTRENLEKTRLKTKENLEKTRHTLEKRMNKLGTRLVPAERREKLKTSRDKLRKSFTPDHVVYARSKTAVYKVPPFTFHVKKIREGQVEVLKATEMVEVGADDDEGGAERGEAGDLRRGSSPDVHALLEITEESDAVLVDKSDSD
UniProt Q6PK04: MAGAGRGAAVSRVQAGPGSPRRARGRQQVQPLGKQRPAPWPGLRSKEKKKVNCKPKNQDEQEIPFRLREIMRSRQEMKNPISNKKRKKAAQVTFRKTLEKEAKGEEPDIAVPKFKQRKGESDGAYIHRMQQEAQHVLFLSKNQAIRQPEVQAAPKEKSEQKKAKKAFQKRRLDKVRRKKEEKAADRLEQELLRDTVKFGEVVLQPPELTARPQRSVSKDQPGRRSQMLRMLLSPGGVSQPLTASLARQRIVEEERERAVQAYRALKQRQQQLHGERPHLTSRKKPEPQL
UniProt A6NHX0: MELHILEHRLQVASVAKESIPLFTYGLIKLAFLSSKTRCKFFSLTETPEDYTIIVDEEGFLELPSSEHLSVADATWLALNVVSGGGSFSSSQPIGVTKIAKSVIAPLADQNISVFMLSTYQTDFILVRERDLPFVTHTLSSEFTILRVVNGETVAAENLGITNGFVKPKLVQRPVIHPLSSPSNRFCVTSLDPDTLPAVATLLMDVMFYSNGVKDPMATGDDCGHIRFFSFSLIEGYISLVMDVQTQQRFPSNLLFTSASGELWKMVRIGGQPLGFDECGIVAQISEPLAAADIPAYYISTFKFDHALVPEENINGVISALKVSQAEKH
UniProt P19397: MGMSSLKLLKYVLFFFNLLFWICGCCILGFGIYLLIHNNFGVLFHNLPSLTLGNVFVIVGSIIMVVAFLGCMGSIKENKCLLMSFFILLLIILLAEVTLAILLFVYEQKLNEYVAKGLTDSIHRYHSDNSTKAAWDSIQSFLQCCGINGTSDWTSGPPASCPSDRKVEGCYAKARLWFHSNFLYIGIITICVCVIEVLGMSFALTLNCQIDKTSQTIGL
UniProt O75794: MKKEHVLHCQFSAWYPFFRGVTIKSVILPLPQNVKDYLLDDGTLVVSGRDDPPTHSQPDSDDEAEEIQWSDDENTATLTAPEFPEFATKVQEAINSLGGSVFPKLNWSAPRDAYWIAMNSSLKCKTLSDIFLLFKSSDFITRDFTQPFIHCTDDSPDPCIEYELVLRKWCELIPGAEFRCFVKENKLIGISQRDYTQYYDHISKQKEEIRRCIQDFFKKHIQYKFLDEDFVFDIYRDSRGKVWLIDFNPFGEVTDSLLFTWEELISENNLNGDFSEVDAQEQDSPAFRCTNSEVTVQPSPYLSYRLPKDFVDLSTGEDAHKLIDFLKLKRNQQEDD
UniProt Q13042, whole entry, looked up: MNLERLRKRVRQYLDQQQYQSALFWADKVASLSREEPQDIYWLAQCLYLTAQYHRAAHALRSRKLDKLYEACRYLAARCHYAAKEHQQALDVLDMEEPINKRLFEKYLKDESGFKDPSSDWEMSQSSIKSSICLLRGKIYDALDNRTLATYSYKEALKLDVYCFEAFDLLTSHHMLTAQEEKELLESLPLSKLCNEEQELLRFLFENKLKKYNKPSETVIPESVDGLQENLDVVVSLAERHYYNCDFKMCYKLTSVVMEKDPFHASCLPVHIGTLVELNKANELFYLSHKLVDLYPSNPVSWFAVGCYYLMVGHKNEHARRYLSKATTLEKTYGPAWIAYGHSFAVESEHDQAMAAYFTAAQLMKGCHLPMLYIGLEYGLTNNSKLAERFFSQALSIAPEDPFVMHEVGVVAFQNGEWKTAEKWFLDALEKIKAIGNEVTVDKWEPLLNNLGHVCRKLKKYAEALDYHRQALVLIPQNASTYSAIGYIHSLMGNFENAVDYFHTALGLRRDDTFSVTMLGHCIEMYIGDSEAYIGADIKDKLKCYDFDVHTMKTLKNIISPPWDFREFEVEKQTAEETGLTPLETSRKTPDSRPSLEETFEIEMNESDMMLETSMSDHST
UniProt Q8N4J0: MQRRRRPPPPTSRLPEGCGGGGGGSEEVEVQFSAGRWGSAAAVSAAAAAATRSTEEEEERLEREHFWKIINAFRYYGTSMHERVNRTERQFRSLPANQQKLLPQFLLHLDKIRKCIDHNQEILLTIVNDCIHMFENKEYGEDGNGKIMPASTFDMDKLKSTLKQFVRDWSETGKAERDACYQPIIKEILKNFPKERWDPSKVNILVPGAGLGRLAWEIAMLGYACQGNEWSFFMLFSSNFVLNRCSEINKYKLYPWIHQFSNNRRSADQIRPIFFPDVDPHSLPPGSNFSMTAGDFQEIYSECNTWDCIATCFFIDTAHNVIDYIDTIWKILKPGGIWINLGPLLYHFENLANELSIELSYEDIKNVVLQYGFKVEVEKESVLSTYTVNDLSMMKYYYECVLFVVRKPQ
UniProt Q8ND76: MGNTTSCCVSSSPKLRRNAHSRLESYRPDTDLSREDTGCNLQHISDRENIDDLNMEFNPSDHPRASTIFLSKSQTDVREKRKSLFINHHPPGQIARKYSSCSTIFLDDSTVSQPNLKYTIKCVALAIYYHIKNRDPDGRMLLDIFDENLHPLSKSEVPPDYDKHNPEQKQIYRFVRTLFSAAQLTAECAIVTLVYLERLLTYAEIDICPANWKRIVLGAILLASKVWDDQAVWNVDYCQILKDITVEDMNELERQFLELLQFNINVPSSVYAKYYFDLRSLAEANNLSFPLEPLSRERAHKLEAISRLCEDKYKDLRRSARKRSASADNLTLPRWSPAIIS
UniProt P55212: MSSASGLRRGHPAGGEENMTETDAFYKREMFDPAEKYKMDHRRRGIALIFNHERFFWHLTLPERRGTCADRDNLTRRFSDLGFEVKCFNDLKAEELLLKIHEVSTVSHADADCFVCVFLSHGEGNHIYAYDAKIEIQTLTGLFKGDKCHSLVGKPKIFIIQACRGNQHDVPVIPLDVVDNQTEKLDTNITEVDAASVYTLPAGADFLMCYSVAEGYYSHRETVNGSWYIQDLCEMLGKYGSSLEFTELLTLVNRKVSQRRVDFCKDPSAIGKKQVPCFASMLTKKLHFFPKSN
UniProt O15234, whole entry, looked up: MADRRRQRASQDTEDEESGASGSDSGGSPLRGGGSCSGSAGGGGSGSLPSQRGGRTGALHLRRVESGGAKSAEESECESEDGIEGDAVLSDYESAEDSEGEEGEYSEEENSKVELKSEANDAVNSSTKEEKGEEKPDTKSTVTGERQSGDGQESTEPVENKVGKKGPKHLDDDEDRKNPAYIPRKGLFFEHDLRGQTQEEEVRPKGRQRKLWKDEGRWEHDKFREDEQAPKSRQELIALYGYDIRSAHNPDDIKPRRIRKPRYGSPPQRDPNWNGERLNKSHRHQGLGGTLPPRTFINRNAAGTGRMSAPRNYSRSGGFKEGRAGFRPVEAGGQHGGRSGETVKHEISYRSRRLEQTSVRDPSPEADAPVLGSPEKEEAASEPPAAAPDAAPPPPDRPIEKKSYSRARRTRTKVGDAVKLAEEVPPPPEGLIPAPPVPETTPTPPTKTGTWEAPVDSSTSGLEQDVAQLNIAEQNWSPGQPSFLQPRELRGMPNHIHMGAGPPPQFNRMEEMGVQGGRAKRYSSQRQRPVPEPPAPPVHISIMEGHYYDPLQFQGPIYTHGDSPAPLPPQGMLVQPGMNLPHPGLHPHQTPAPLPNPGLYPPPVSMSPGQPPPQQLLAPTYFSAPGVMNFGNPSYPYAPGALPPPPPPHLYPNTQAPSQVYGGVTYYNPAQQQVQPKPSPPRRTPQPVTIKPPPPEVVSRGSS
UniProt O75909: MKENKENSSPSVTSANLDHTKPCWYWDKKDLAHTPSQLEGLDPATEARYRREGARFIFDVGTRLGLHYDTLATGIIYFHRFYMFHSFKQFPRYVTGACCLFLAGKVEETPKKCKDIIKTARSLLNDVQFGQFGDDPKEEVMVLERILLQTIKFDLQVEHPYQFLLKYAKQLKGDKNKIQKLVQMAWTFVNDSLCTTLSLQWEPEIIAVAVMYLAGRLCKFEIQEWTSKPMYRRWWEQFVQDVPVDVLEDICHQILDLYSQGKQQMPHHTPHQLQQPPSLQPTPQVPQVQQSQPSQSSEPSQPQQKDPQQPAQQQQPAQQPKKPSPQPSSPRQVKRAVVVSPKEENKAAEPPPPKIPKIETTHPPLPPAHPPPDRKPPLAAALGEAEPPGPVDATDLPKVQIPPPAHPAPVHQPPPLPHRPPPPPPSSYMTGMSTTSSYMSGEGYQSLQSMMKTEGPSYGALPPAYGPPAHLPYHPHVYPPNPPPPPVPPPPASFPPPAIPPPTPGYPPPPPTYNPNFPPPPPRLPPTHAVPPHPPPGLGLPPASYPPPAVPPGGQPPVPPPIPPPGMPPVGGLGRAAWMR
UniProt Q567U6, whole entry, looked up: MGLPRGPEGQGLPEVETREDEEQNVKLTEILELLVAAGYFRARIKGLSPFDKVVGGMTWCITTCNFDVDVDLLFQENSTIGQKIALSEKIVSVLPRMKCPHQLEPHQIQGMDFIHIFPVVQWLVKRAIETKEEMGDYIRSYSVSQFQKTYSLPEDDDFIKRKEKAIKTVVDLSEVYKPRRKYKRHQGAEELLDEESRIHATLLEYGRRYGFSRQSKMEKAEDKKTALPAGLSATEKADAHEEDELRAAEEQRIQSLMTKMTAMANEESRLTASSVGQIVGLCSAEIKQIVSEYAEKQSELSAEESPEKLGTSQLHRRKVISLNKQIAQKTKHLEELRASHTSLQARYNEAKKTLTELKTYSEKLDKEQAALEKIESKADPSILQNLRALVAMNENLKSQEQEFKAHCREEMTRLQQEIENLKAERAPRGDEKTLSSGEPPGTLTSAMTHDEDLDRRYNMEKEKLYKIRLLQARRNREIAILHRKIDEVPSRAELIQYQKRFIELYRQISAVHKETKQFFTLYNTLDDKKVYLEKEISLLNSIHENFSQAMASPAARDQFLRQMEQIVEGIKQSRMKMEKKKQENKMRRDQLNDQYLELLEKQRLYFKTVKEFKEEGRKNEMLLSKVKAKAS

The list shows a part of the results.

Compound in this test: c1ccc([C@@H]2C[C@H]2NC2CCNCC2)cc1
Briefly: log2 fold change, soluble protein after heating vs DMSO (PISA); higher = thermal stabilisation; K562 cells, 10 uM, 30 min; active = over 0.2 and 3.5 SD of the protein, either way, in both replicates (recomputed). The essentials: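 Thermal stability values are relative to control samples and come from duplicates. They are expressed as log2 fold changes. For measurement, K562 cells (2×10^6 cells/mL) received 10 μM compound for 30 min, and aliquots were heated for 3 min over 48°C-58°C, pooled, and extracted at 4°C in PBS with 0.5% NP-40. Soluble protein, the supernatant after 21,000xg for 90 min, was quantified by TMTpro 16plex LC-MS/MS with equalised channel sums.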
For CCPG1 isoform 5 (UniProt Q9ULG6), the log2 fold change is inactive: -0.01.

As to CCT7 (UniProt Q99832), the log2 fold change is inactive: 0.002. With CARS isoform 3 (UniProt P49589), the log2 fold change is inactive: 0.001. Regarding CCDC86 (UniProt Q9H6F5), the log2 fold change was inactive: 0. Turning to CBR1 (UniProt P16152), the log2 fold change is inactive: -0.037. As for CCDC22 (UniProt O60826), the log2 fold change was inactive: 0.008.

As for CCT2 (UniProt P78371), the log2 fold change was inactive: 0.004. With CD46 isoform 2 (UniProt P15529), the log2 fold change is inactive: 0.02. In the case of CBX5 (UniProt P45973), the log2 fold change is inactive: 0.008.

Regarding CCDC32 isoform 2 (UniProt Q9BV29), the log2 fold change is inactive: 0.047. In the case of CAVIN1 (UniProt Q6NZI2), the log2 fold change is inactive: 0. The value for CCDC174 (UniProt Q6PII3) was inactive: 0.017. In the case of CCDC137 (UniProt Q6PK04), the log2 fold change is inactive: 0.009. As for CDC27 isoform 2 (UniProt P30260), the log2 fold change is inactive: -0.013. The value for CCS (UniProt O14618) was inactive: 0.015. Consider CASTOR2 (UniProt A6NHX0), for which the log2 fold change is inactive: -0.016. For CD53 (UniProt P19397), the log2 fold change is inactive: 0.014. As for CBLB (UniProt Q13191), the log2 fold change was inactive: 0.061. To CDC123 (UniProt O75794) belongs inactive: -0.029. Regarding CDC16 (UniProt Q13042), the log2 fold change was inactive: 0.001. Turning to CASP3 (UniProt P42574), the log2 fold change was inactive: 0.003. For CCAR2 isoform 2 (UniProt Q8N163), the log2 fold change was inactive: 0.011. To CARNMT1 (UniProt Q8N4J0) belongs inactive: -0.081. For CCNY (UniProt Q8ND76), the log2 fold change is inactive: 0.06. The value for CASP6 (UniProt P55212) was inactive: -0.005. To CASC3 (UniProt O15234) belongs inactive: 0.025; to CCNK isoform 4 (UniProt O75909), inactive: 0.069; to CARM1 (UniProt Q86X55), inactive: 0.007. CCDC93 (UniProt Q567U6): the log2 fold change was inactive: -0.048. As for CD99L2 isoform 5 (UniProt Q8TCZ2), the log2 fold change is inactive: 0.025.
